According to PubChem BioAssay AID264 (DTP/NCI, 2004):
The list shows only some results of the screen, not a fair sample: it is rich in T/C values a quarter to a half above the control, in often repeated tests (any T/C) and in doses without a T/C. Further doses and runs are listed elsewhere. T/C is the treated group as % of the vehicle group. Schedules are NCI's codes, read here as Q, the interval in days (D) or hours (H), X, the number of doses. Some T/C values are followed by the survivors on the day toxicity was checked, most often the fifth; where none is given, no animal had died by that day. Some doses were run more than once; the values are given in rising order. Some doses have a count of surviving animals in place of a T/C: the source files T/C as zero there, which appears to mark a toxic dose or a test without result, not a measured value. Counts of survivors are from the toxicity check (mostly the fifth day) where no day follows; animals may have died later.

System: nude mice, LX-1 lung xenograft intrarenal, tumor weight T/C
Assay: NCI In Vivo Anticancer Drug Screen. Data for tumor model Human Lung LX-1 Xenograft (intrarenal inoculation) in NU/NU Swiss (nude) mice
Conditions: T/C endpoint: mean tumor weight change, higher T/C = larger tumour; for T/C: evaluated on day 11
Outline: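 Antitumor effect is expressed as a ratio: the mean tumor measurement of the drug-treated group relative to that of the vehicle-dosed control group.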

[1] = dose: 100.0 mg/kg/injection, schedule: Q01DX010 (sc), vehicle: saline
[2] = dose: 200.0 mg/kg/injection, schedule: Q01DX010 (sc), vehicle: distilled water + Tween-80
[3] = dose: 400.0 mg/kg/injection, schedule: Q04DX003 (sc), vehicle: saline with Tween-80

## Nc1n[nH]c(N)n1
dose: 1600.0 mg/kg/injection, schedule: Q01DX010 (sc), vehicle: saline
  survivor count: 1 of 3 on day 11

## O=C(O)CC(NC(=O)CP(=O)(O)O)C(=O)O.[NH-]C1CCCCC1[NH-].[Pt+2] (stereo not drawn)
dose: 50.0 mg/kg/injection, schedule: Q04DX003 (sc), vehicle: dextrose
  survivor count: 3 of 6 on day 11

## CC[PH+](CC)CC[S-].CC[PH+](CC)CC[S-].[Au+].[Au+]
dose: 20.0 mg/kg/injection, schedule: Q04DX003 (sc), vehicle: Klucel (hydroxypropylcellulose) (HPC)
  T/C: 142 % of control

## O=C1C2(Cl)C3(Cl)C4(Cl)C(Cl)(Cl)C5(Cl)[C@]3(Cl)C1(Cl)[C@]5(Cl)C24Cl (stereo partly drawn)
dose: 300.0 mg/kg/injection, schedule: Q04DX003 (sc), vehicle: Klucel (hydroxypropylcellulose) (HPC)
  survivor count: 1 of 6 on day 11

## C1CN2CCC1CC2
dose: 37.5 mg/kg/injection, schedule: Q04DX003 (sc), vehicle: saline with Tween-80
  survivor count: 0 of 6 on day 11
dose: 75.0 mg/kg/injection, schedule: Q04DX003 (sc), vehicle: saline with Tween-80
  survivor count: 0 of 6 on day 11
dose: 150.0 mg/kg/injection, schedule: Q04DX003 (sc), vehicle: saline with Tween-80
  survivor count: 0 of 6 on day 11
dose: 300.0 mg/kg/injection, schedule: Q04DX003 (sc), vehicle: saline with Tween-80
  survivor count: 0 of 6 on day 11
dose: 600.0 mg/kg/injection, schedule: Q04DX003 (sc), vehicle: saline with Tween-80
  survivor count: 0 of 6 on day 11

## CCCCC(=O)OCC(=O)[C@]1(O)Cc2c(O)c3c(c(O)c2[C@@H](OC2CC(NC(=O)C(F)(F)F)C(O)C(C)O2)C1)C(=O)c1c(OC)cccc1C3=O (stereo partly drawn)
dose: 64.0 mg/kg/injection, schedule: Q01DX010 (sc), vehicle: distilled water + Tween-80
  T/C: 45, 59 [2 of 2 alive on day 11], 66, 86, 104 % of control
dose: 128.0 mg/kg/injection, schedule: Q01DX010 (sc), vehicle: distilled water + Tween-80
  T/C: 22, 41, 43, 78, 111 % of control
dose: 256.0 mg/kg/injection, schedule: Q01DX010 (sc), vehicle: distilled water + Tween-80
  T/C: 14, 21, 24, 28, 62 % of control

## CN(N=O)C(=O)N[C@@H](C=O)[C@@H](O)[C@H](O)[C@H](O)CO
dose: 300.0 mg/kg/injection, schedule: Q04DX003 (sc), vehicle: other
  survivor count: 1 of 6 on day 11
dose: 600.0 mg/kg/injection, schedule: Q04DX003 (sc), vehicle: other
  survivor count: 0 of 6 on day 11
dose: 600.0 mg/kg/injection, schedule: Q04DX003 (sc), vehicle: saline
  survivor count: 0 of 6 on day 11

## N=[N+]=CC(=O)OCC(N)C(=O)O (stereo not drawn)
dose: 25.0 mg/kg/injection, schedule: Q01DX010 (sc), vehicle: saline
  survivor count: 0 of 3 on day 11
dose: 50.0 mg/kg/injection, schedule: Q01DX010 (sc), vehicle: saline
  survivor count: 0 of 3 on day 11
[1]
  survivor count: 0 of 3 on day 11

## O=CC(O)C(O)C(O)C(O)C(=O)O.[NH-]C1CCCCC1[NH-].[Pt+2] (stereo not drawn)
dose: 37.5 mg/kg/injection, schedule: Q04DX003 (sc), vehicle: suspension in saline
  survivor count: 1 of 6 on day 11
dose: 75.0 mg/kg/injection, schedule: Q04DX003 (sc), vehicle: suspension in saline
  survivor count: 0 of 6 on day 11

## CC(C)NC(=O)OCc1c(COC(=O)NC(C)C)c(-c2ccc(Cl)c(Cl)c2)n2c1CCC2
dose: 25.0 mg/kg/injection, schedule: Q01DX010 (sc), vehicle: distilled water + Tween-80
  T/C: 126 % of control
dose: 100.0 mg/kg/injection, schedule: Q01DX010 (sc), vehicle: distilled water + Tween-80
  T/C: 29, 40, 68 [2 of 3 alive on day 11], 82, 94 % of control
[2]
  T/C: 15 [2 of 3 alive on day 11], 16, 44 [5 of 6 alive on day 11], 61 % of control
  survivor count: 1 of 3 on day 11
dose: 400.0 mg/kg/injection, schedule: Q01DX010 (sc), vehicle: distilled water + Tween-80
  T/C: 18 [2 of 3 alive on day 11], 21, 21 [2 of 3 alive on day 11], 51 % of control [5 of 6 alive on day 11]

## C=C[Si]12OCCN(CCO1)CCO2
dose: 2400.0 mg/kg/injection, schedule: Q04DX003 (sc), vehicle: Klucel (hydroxypropylcellulose) (HPC)
  T/C: 136 % of control

## C/C=C/c1cc2c(c(=O)o1)C(=O)[C@@H](O)[C@H](C)O2
[3]
  survivor count: 2 of 6 on day 11
dose: 800.0 mg/kg/injection, schedule: Q04DX003 (sc), vehicle: saline with Tween-80
  survivor count: 0 of 6 on day 11

## CCc1ccc(C2=C(O)C(=O)C(c3ccccc3)=C(O)C2=O)cc1
dose: 150.0 mg/kg/injection, schedule: Q04DX003 (sc), vehicle: Klucel (hydroxypropylcellulose) (HPC)
  T/C: 140 % of control

## CC(Cc1ccc(O)cc1)NCC(O)c1ccc(O)c(O)c1 (stereo not drawn)
dose: 2400.0 mg/kg/injection, schedule: Q04DX003 (sc), vehicle: saline with Tween-80
  survivor count: 3 of 6 on day 11

## CCCCOCN(COCCCC)C(C)Cc1ccccc1 (stereo not drawn)
[3]
  T/C: 147 % of control

## OCC1OC(n2cnc3c(Cl)ncnc32)C(O)C1O (stereo not drawn)
[1]
  T/C: 125 % of control

## Cc1c(N)nc(C(CC(N)=O)NCC(N)C(N)=O)nc1C(=O)NC(C(=O)NC(C)C(O)CC(=O)NC(C(=O)NC(OC1OC(C)C(N)C(O)C1O)C(O)c1nc(-c2nc(C(=O)NCCCC(N)CC(=O)NCCCNCCCCN)cs2)cs1)C(C)O)C(OC1OC(CO)C(O)C(O)C1OC1OC(CO)C(O)C(OC(N)=O)C1O)c1cnc[nH]1 (stereo not drawn)
dose: 32.0 mg/kg/injection, schedule: Q04DX003 (sc), vehicle: saline
  survivor count: 1 of 3 on day 11
dose: 64.0 mg/kg/injection, schedule: Q04DX003 (sc), vehicle: saline
  survivor count: 0 of 3 on day 11
dose: 128.0 mg/kg/injection, schedule: Q04DX003 (sc), vehicle: saline
  survivor count: 0 of 3 on day 11

## CCCCCCCCCCS(=O)CC(CO)NC(=O)/C=C/c1c(C)[nH]c(=O)[nH]c1=O (stereo not drawn)
dose: 37.5 mg/kg/injection, schedule: Q04DX003 (sc), vehicle: distilled water + Tween-80
  survivor count: 2 of 6 on day 11
dose: 75.0 mg/kg/injection, schedule: Q04DX003 (sc), vehicle: distilled water + Tween-80
  survivor count: 0 of 6 on day 11

## CCOC(OCC)C(=O)OCC(=O)[C@]1(O)Cc2c(O)c3c(c(O)c2[C@@H](OC2CC(N)C(O)C(C)O2)C1)C(=O)c1c(OC)cccc1C3=O (stereo partly drawn)
dose: 8.0 mg/kg/injection, schedule: Q01DX010 (sc), vehicle: water
  survivor count: 0 of 3 on day 11

## C/C=C/c1cc2n(c1)C(=O)c1cc(OC3OC(C)C(NC)C(C)(O)C3O)c(C)c(O)c1NC2O (stereo not drawn)
dose: 100.0 micrograms/kg/injection, schedule: Q04DX003 (sc), vehicle: saline
  T/C: 128 % of control

## CC1(c2ccc(Cl)cc2)OC(=O)C(=Cc2ccc([N+](=O)[O-])s2)C(=O)O1 (stereo not drawn)
[3]
  T/C: 139 % of control

## CNc1nc2c(N)ncnc2n1C1OC(CO)C(O)C1O (stereo not drawn)
dose: 200.0 mg/kg/injection, schedule: Q04DX003 (sc), vehicle: saline
  survivor count: 0 of 6 on day 11

## O=C1C(NCCO)=C(N2CC2)C(=O)C(NCCO)=C1N1CC1
dose: 1.0 mg/kg/injection, schedule: Q04DX003 (ip), vehicle: saline
  survivor count: 1 of 3 on day 11
dose: 3.0 mg/kg/injection, schedule: Q04DX003 (sc), vehicle: suspension in saline
  survivor count: 2 of 6 on day 11
dose: 6.0 mg/kg/injection, schedule: Q04DX003 (sc), vehicle: suspension in saline
  survivor count: 2 of 6 on day 11
dose: 12.0 mg/kg/injection, schedule: Q04DX003 (sc), vehicle: suspension in saline
  survivor count: 0 of 6 on day 11

## CN(C)CCN1C(=O)c2cccc3cc(N)cc(c23)C1=O
dose: 8.0 mg/kg/injection, schedule: Q04DX003 (sc), vehicle: saline with Tween-80
  T/C: 126 % of control
dose: 32.0 mg/kg/injection, schedule: Q04DX003 (sc), vehicle: saline with Tween-80
  T/C: 128 % of control

## COC1=C(C)C(=O)C2=C(C1=O)C1C3CC4=C(C(=O)C(OC)=C(C)C4=O)C(CNC(=O)C(C)=O)N3C(C#N)C(C2)N1C (stereo not drawn)
dose: 8.0 mg/kg/injection, schedule: Q04DX003 (sc), vehicle: Klucel (hydroxypropylcellulose) (HPC)
  survivor count: 3 of 6 on day 11
